# Reference: paper PMC12270201
# The chains behind the UniProt entries cited, without tags or fusion partners. Where a name states a change or a piece, a line headed by the entry shows the natural chain unless it says otherwise. Residues count along the entry.
# UniProt Q86VE9: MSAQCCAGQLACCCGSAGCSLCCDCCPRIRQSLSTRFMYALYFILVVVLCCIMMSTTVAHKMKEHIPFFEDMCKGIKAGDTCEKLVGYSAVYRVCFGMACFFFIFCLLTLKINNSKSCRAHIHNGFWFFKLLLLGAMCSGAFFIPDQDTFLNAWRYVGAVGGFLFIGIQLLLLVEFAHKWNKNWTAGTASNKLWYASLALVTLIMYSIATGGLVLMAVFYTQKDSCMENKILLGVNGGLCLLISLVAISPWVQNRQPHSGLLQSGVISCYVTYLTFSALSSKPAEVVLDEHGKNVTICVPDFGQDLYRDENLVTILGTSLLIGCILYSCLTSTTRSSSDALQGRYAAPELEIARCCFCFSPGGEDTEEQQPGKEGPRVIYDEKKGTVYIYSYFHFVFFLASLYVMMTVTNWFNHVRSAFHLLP
# UniProt P78536: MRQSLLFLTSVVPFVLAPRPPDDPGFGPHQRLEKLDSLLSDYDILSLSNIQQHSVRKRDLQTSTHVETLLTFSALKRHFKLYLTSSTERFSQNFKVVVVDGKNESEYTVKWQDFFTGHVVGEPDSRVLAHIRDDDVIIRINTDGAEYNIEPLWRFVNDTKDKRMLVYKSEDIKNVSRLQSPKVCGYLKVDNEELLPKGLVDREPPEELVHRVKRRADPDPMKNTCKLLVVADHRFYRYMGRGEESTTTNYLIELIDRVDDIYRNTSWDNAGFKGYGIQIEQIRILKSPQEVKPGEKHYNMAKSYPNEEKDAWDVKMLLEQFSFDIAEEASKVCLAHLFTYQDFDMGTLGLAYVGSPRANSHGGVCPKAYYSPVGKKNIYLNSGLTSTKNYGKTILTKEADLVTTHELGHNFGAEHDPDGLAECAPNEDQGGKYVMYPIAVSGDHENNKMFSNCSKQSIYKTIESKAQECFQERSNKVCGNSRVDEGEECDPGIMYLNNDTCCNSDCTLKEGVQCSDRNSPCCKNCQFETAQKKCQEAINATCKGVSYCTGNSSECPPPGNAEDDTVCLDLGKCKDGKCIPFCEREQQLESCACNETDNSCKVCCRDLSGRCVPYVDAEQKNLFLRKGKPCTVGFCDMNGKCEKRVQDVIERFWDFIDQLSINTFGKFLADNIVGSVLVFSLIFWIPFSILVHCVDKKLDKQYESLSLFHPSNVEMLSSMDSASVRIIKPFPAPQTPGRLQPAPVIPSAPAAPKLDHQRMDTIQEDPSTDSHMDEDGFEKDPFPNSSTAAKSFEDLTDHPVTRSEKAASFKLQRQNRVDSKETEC
# UniProt Q13444: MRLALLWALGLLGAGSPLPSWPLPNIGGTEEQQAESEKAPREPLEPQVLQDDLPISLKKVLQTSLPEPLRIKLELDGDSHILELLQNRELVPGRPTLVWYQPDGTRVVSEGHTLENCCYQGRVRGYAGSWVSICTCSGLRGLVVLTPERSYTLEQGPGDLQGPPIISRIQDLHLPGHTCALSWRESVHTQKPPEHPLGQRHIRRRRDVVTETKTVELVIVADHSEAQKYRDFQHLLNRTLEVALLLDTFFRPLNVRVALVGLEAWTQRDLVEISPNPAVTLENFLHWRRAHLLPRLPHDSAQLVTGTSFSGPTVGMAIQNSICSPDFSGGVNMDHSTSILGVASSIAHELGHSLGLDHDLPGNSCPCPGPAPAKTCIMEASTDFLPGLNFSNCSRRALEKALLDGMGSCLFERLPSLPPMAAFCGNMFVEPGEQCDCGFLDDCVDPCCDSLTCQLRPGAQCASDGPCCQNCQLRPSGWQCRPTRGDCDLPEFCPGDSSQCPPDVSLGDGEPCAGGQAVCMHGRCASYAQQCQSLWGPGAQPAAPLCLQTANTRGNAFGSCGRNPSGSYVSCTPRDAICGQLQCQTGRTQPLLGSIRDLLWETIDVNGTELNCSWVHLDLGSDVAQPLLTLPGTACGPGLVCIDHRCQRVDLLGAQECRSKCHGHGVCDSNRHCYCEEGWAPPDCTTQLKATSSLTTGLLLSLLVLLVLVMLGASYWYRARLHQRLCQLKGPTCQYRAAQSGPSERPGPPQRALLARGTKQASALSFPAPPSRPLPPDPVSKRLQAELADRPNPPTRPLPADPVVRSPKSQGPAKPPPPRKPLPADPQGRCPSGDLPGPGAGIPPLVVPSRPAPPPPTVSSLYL
# UniProt Q13443, residues 29-819: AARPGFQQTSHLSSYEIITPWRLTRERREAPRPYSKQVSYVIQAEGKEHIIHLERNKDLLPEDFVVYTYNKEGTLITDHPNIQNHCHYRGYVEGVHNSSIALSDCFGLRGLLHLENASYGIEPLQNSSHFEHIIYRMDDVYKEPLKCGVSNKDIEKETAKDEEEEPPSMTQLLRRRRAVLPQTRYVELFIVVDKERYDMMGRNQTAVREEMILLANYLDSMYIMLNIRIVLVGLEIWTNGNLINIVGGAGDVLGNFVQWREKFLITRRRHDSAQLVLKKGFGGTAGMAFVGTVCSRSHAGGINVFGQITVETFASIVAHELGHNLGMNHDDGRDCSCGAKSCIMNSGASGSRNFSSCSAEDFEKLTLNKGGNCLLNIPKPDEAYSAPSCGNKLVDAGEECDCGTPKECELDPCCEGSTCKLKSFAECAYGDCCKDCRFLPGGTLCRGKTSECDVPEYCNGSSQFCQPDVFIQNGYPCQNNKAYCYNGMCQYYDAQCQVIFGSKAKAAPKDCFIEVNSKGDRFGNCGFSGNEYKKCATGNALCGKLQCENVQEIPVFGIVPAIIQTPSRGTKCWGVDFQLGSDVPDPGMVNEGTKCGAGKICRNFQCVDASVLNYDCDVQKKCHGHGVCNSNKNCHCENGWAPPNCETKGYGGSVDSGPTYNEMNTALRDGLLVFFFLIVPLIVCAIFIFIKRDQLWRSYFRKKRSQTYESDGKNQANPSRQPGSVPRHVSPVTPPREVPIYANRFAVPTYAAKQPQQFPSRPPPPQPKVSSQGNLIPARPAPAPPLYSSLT
# Results are given in words; binding and its absence hold for the method and conditions named. In cells and extracts the contact can be indirect. Binding can be weak; no strength is given.
# What was measured:
# [1] = target: SERINC5 with a C-terminal FLAG-VC tag (Ser5-FLAG-VC) (UniProt Q86VE9); assay: split reporter; BiFC: VN-HA fusion and FLAG-VC fusion co-expressed in HeLa cells, confocal microscopy; VN-HA fusion stained with anti-HA
# [2] = target: ectopically expressed ADAM17 (co-IP of Fig. S2) (human) (UniProt P78536); assay: co-IP; Fig. S2, reverse: A17 or GFP precipitated, Ser5 detected
# [3] = target: FLAG-tagged SERINC5 (Ser5-FLAG) (UniProt Q86VE9); assay: co-IP; Ser5-FLAG expressed in HEK293T, immunoprecipitated with anti-FLAG beads; endogenous ADAM proteins detected with their specific antibodies by Western blotting
Substance,binding [3],further results
ADAM15 with a C-terminal VN-HA tag (A15-VN-HA) (from UniProt Q13444),,binding [1]: binds
FLAG-tagged SERINC5 (Ser5-FLAG) (from UniProt Q86VE9-4),,binding [2]: binds
endogenous ADAM9 (from UniProt Q13443 29-819),binds,
endogenous ADAM15 (from UniProt Q13444),binds,
